The data set in a line: solid-phase peptide synthesis. The conditions noted are these: whole synthesis, 215 nm.

Here are results for 1 substance from patent US6034064A (Hoechst Pharmaceuticals & Chemicals K.K., priority 1995, dated 2000).

Strings that start with PEPTIDE1 are HELM notation: dots part the residues, brackets hold end groups and non-standard residues.

For the substance “PEPTIDE1{[tBoc].A.K.L.T.F.G.K.G.T}$$$$V2.0”, the “final HPLC purity” value was found to be 97.2%.
